Assay results published in paper PMC9995496, “A screen for MeCP2-TBL1 interaction inhibitors using a luminescence-based assay” (Scientific Reports, 2023).

Each molecule was assayed on PRKACA-PRKAR2A interaction (SmBiT-PRKACA / LgBiT-PRKAR2A), protein kinase A. Conditions: counter-screen for NanoLuc interference; 0.5 h, 20 µM; inhibitor.
Set-up: NanoLuc complementation counter-screen in cell extract, PRKACA with PRKAR2A, loss of luminescence, detects NanoLuc interference

| Structure (SMILES) | Inh (PKA) [%] |
| --- | --- |
| CN1C[C@@H]2c3ccccc3Oc3ccc(Cl)cc3[C@H]2C1 (racemic) [UM0141861:01, Asenapine] | 11.75 |
| O=C(CCCCCCC(=O)Nc1ccccc1)NO [UM0128550:04, Vorinostat (SAHA, MK0683)] | 3.557 |
| CCS(=O)(=O)N1CC(CC#N)(n2cc(-c3ncnc4[nH]ccc34)cn2)C1 [UM0141730:01, Baricitinib (LY3009104, INCB028050)] | 10.91 |
| CN[C@@H]1C[C@H]2O[C@@](C)([C@@H]1OC)n1c3ccccc3c3c4c(c5c6ccccc6n2c5c31)C(=O)NC4 [UM0141941:01, Staurosporine] | 55.13 |
| CNC(=O)c1ccccc1Sc1ccc2c(/C=C/c3ccccn3)n[nH]c2c1 [UM0142019:01, Axitinib (AG 013736)] | 16.49 |
